From paper PMC9102673

Target: DNA damage-inducible transcript 4 (DDIT4) (not stated (human or mouse cDNA cloned))
Experiment: co-IP; DDIT4-overexpressing SK-N-SH cells treated with or without sodium arsenite; lysate in PLB buffer (10 mM HEPES pH 7.0, 100 mM KCl, 5 mM MgCl2, 0.5% NP-40); anti-DDIT4 antibody or IgG control, Protein A/G magnetic beads, washes with NT2 buffer (250 mM NaCl); immunoblot

B1: ectodermal-neural cortex 1 (ENC1) (protein, UniProt O14682 1-589)
chain: MSVSVHENRKSRASSGSINIYLFHKSSYADSVLTHLNLLRQQRLFTDVLLHAGNRTFPCHRAVLAACSRYFEAMFSGGLKESQDSEVNFDNSIHPEVLELLLDYAYSSRVIINEENAESLLEAGDMLEFQDIRDACAEFLEKNLHPTNCLGMLLLSDAHQCTKLYELSWRMCLSNFQTIRKNEDFLQLPQDMVVQLLSSEELETEDERLVYESAINWISYDLKKRYCYLPELLQTVRLALLPAIYLMENVAMEELITKQRKSKEIVEEAIRCKLKILQNDGVVTSLCARPRKTGHALFLLGGQTFMCDKLYLVDQKAKEIIPKADIPSPRKEFSACAIGCKVYITGGRGSENGVSKDVWVYDTLHEEWSKAAPMLVARFGHGSAELKHCLYVVGGHTAATGCLPASPSVSLKQVEHYDPTINKWTMVAPLREGVSNAAVVSAKLKLFAFGGTSVSHDKLPKVQCYDQCENRWTVPATCPQPWRYTAAAVLGNQIFIMGGDTEFSACSAYKFNSETYQWTKVGDVTAKRMSCHAVASGNKLYVVGGYFGIQRCKTLDCYDPTLDVWNSITTVPYSLIPTAFVSTWKHLPS
- binding: binds

B2: E2F7 (protein, UniProt Q96AV8 1-911)
chain: MEVNCLTLKDLISPRQPRLDFAVEDGENAQKENIFVDRSRMAPKTPIKNEPIDLSKQKKFTPERNPITPVKFVDRQQAEPWTPTANLKMLISAASPDIRDREKKKGLFRPIENKDDAFTDSLQLDVVGDSAVDEFEKQRPSRKQKSLGLLCQKFLARYPSYPLSTEKTTISLDEVAVSLGVERRRIYDIVNVLESLHLVSRVAKNQYGWHGRHSLPKTLRNLQRLGEEQKYEEQMAYLQQKELDLIDYKFGERKKDGDPDSQEQQLLDFSEPDCPSSSANSRKDKSLRIMSQKFVMLFLVSKTKIVTLDVAAKILIEESQDAPDHSKFKTKVRRLYDIANVLTSLALIKKVHVTEERGRKPAFKWIGPVDFSSSDEELVDVSASVLPELKRETYGQIQVCAKQKLARHGSFNTVQASERIQRKVNSEPSSPYREEQGSGGYSLEIGSLAAVYRQKIEDNSQGKAFASKRVVPPSSSLDPVAPFPVLSVDPEYCVNPLAHPVFSVAQTDLQAFSMQNGLNGQVDVSLASAASAVESLKPALLAGQPLVYVPSASLFMLYGSLQEGPASGSGSERDDRSSEAPATVELSSAPSAQKRLCEERKPQEEDEPATKRQSREYEDGPLSLVMPKKPSDSTDLASPKTMGNRASIPLKDIHVNGQLPAAEEISGKATANSLVSSEWGNPSRNTDVEKPSKENESTKEPSLLQYLCVQSPAGLNGFNVLLSGSQTPPTVGPSSGQLPSFSVPCMVLPSPPLGPFPVLYSPAMPGPVSSTLGALPNTGPVNFSLPGLGSIAQLLVGPTAVVNPKSSTLPSADPQLQSQPSLNLSPVMSRSHSVVQQPESPVYVGHPVSVVKLHQSPVPVTPKSIQRTHRETFFKTPGSLGDPVLKRRERNQSRNTSSAQRRLEIPSGGAD
- binding: binds

These are yes or no findings as the source states them, for the method shown. Binding seen in cells or lysates may run through a third protein. Binding can be weak; no strength is given.
